# Measured values published in PubChem BioAssay AID485318 (Broad Institute, 2010).
# By UniProt entry, the sequences of proteins in these tests, tags left out. Where a name states a change or a piece, a line headed by the entry shows the natural chain unless it says otherwise.
# UniProt O15379: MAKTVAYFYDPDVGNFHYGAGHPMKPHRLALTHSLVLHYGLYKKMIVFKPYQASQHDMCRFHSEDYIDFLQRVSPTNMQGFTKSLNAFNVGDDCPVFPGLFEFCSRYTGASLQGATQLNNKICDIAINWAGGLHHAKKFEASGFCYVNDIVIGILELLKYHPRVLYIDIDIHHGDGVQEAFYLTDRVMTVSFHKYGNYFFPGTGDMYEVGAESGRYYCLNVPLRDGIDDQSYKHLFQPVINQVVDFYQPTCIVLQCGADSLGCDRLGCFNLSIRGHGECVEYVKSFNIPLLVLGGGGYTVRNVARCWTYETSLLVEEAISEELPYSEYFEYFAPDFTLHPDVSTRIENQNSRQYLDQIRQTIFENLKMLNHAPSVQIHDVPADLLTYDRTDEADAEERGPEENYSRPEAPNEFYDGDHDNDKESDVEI
# Among all 1,400 compounds or so, fewer than 10 were called active.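 Rule for the calls: active = fluorescence-lowering compounds whose fitted half-maximal concentration is at or below ten times the highest valid dose tested; inconclusive = flat curve at 30 to 70% inhibition, or poor fit; inactive = the rest.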 The list shows a part of the results.
# Biological target: Histone deacetylase 3 (Homo sapiens) (UniProt O15379)
# Assay: inhibition of human HDAC3 enzymatic activity – biochemical, fluorescence, cherry-picked samples, counter-screen for JMJD2C/GASC1 demethylase inhibitor project, dose response (AID 485318);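 note: enzyme preincubated with compound before substrate and trypsin were added; 0% = neutral control wells and -100% = SAHA positive control wells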
# Conditions: recombinant HDAC3, fluorogenic peptide/trypsin coupled; at 12 µM (top of the series)
row,SMILES,"activity change, negative = inhibition"
1,COc1ccc(C(=O)NCc2cccnc2)cc1S(=O)(=O)N1CCOCC1,inactive: 0.579%
2,Cc1cc2c(cc1C)NC(CC(=O)NCc1ccccc1)C(=O)N2 (stereo unspecified),inactive: -0.289%
3,CCCCNC(=O)c1nn2cc(Br)cnc2c1Br,inactive: 0.783%
4,COc1cccc(CSc2nnc(C(F)(F)F)n2Cc2ccc(F)cc2)c1,inactive: 0.567%
5,O=C(COc1ccc(NC(=O)c2ccccc2)cc1)c1ccccc1,inactive: -0.121%
6,CC(C)C[C@H](NC(=O)N1CCCCCC1)C(=O)O,inactive: 0.653%
7,CCOC(=O)c1c(C)[nH]c(C)c1S(=O)(=O)N(C)CC(=O)N(C)Cc1ccccc1,inactive: -0.313%
8,O=c1[nH]c(S)nc2sc3c(c12)CCCC3,inactive: -1.25%
9,O=C1NCCN1CCNS(=O)(=O)c1ccccc1[N+](=O)[O-],inactive: -0.167%
10,O=C1c2sc3nc4c(c(=O)n3c2C(=O)N1c1ccccc1)CCC4,inactive: 0.641%
11,O=c1[nH]cc(N2CCCCCC2)c(=O)[nH]1,inactive: -0.0271%
12,C[C@@H](CN1CCC[C@H]1CN1C(N)=NC[C@@H]1Cc1ccccc1)N1C[C@@H](Cc2ccccc2)N(CCc2ccc(Cl)c(Cl)c2)C1=N,inactive: -0.0869%
13,CC(C)NC(=O)Nc1ccc2c(c1)C(=O)N([C@H](C)CO)C[C@H](C)[C@@H](CN(C)C(=O)Nc1ccccc1)O2,inactive: -0.351%
14,Cc1cccc(-n2c(SCC(=O)Nc3ccc4c(c3)OCO4)nnc2-c2ccoc2C)c1,inactive: -0.505%
15,C#CCOCCOCCOCCNc1nc(N2CCOCC2)nc(N2CCN(C(=O)[C@H](CCCN=C(N)N)n3cc(C(N)[C@@H](C)CC)nn3)CC2)n1 (stereo partly specified),inactive: 0.32%
16,Cc1ccc(C(=O)NCc2ccco2)cc1Br,inactive: 0.47%
17,N#Cc1ccc(C23OCCN2CCn2nc4ccccc4c23)cc1 (stereo unspecified),inactive: 0.331%
18,COc1ccc(NC(=O)N(C)C[C@H]2Oc3c(NS(=O)(=O)c4cn(C)cn4)cccc3C(=O)N([C@H](C)CO)C[C@@H]2C)cc1,inactive: 0.831%
19,O=C(Nc1ccccc1)N1CCSCC1,inactive: 0.906%
20,COc1ccc(OC)c(/C=C/C(=O)Nc2cccc(S(=O)(=O)NC3=NCCCCC3)c2)c1,inactive: -0.822%
21,O=C(O)CCCC(=O)Nc1ccc(C(=O)NCc2cccnc2)cc1,inactive: 0.498%
22,Cc1nnnn1/C(=C\c1ccccc1)C(=O)OCC(=O)NC(C)(C)C,inactive: 0.891%

# A section from the list above:
row,SMILES,"activity change, negative = inhibition"
20,COc1ccc(OC)c(/C=C/C(=O)Nc2cccc(S(=O)(=O)NC3=NCCCCC3)c2)c1,inactive: -0.822%
21,O=C(O)CCCC(=O)Nc1ccc(C(=O)NCc2cccnc2)cc1,inactive: 0.498%

# The list continues.

row,SMILES,"activity change, negative = inhibition"
1,O=C(Cc1ccccc1Cl)N1CCN(c2ccccn2)CC1,inactive: -0.0317%
2,Cc1nc2c3cc(F)ccc3n(Cc3ccccc3)c2s1,inactive: -0.478%
3,CCC(=O)N1CCc2cc(S(=O)(=O)CCC(=O)Nc3cccc(F)c3)ccc21,inactive: 1.26%
4,Cn1c(=O)c2[nH]c(=O)cnc2n(C)c1=S,inactive: 0.57%
5,CCc1ccc(NC(=O)C/C(C)=N/NC(=O)COc2ccc(C)cc2Br)cc1,inactive: 0.354%
6,O=C(O)CCNc1ccc2c(c1)OCCO2,inactive: 0.409%
7,COCCn1c(C(C)C)nc2sc3ccccc3c(=O)c2c1=O,inactive: 0.759%
8,O=C(Oc1ccc(N2C(=O)CCC2=O)cc1)c1ccccc1,inactive: -0.349%
9,Cc1ccc(C(=O)Oc2csc(=S)n2C(=O)c2ccc(C)cc2)cc1,inactive: -0.524%
10,Cc1ccccc1NC(=O)C1CC(=O)OC12CCOC(C)(C)C2 (stereo unspecified),inactive: 0.0138%
11,O=c1cnnc(Nc2ccccc2)[nH]1,inactive: 0.0371%
12,C[C@H](CO)N1C[C@H](C)[C@@H](CN(C)C(=O)Nc2ccccc2)Oc2c(NC(=O)c3ccncc3)cccc2C1=O,inactive: 0.682%
13,COc1ccc2cc(Br)ccc2c1CC(=O)NCCCN1CCOCC1,inactive: 0.0769%
14,COC(=O)[C@]1(C)N[C@H](CN(C)S(=O)(=O)c2ccc(C)cc2)[C@@H]2C(=O)N(Cc3ccccc3)C(=O)[C@@H]21,inactive: -1.14%
15,COc1ccc(CN2CCNC(=O)C2CC(=O)NCc2csc(C(C)C)n2)c(OC)c1 (stereo unspecified),inactive: -0.344%
16,O=S(=O)(c1ccc2ccccc2c1)N(CC(O)COCc1ccco1)c1ccccc1 (stereo unspecified),inactive: 0.206%
17,COc1ccc(CCNCCN2CCOCC2)cc1,inactive: -0.162%
18,CCc1ccc(CCC(=O)Nc2sc3c(c2C#N)CCCC3)o1,inactive: 0.915%
19,CN1N=C(C(F)(F)F)CC1=O,inactive: 0.111%
20,COc1ccc(C2CC(=O)C=C(NNS(=O)(=O)c3ccc(C)cc3)C2)cc1 (stereo unspecified),inactive: 0.256%
21,CC(=O)c1nnn(-c2nc(N3CCCC3)nc(N(c3ccccc3)c3ccccc3)n2)c1C,inactive: 0.111%
22,O=C(NC1CCCCC1)NC1C2CC3CC(C2)CC1C3 (stereo unspecified),inactive: 0.358%

# Reformatted with tabs: 3 of the compounds above.
row	SMILES	activity change, negative = inhibition
3	CCCCNC(=O)c1nn2cc(Br)cnc2c1Br	inactive: 0.783%
4	COc1cccc(CSc2nnc(C(F)(F)F)n2Cc2ccc(F)cc2)c1	inactive: 0.567%
5	O=C(COc1ccc(NC(=O)c2ccccc2)cc1)c1ccccc1	inactive: -0.121%

# More records

row,SMILES,"activity change, negative = inhibition"
1,Cc1ccc(O)c(N=NC2=C(O)CC(C)(C)CC2=O)c1,inactive: 0.227%
2,CCOC(=O)c1c(S(=O)(=O)N2CCCC(C(=O)Nc3ccc(C)cn3)C2)c(C)n(C)c1C (stereo unspecified),inactive: 0.917%
3,Cc1noc(C)c1S(=O)(=O)N(C)C[C@H]1Oc2c(NC(=O)Nc3ccc(C(F)(F)F)cc3)cccc2C(=O)N([C@H](C)CO)C[C@@H]1C,inactive: 0.591%
4,COc1ccc(NS(=O)(=O)c2cccc(C(=O)OCC(=O)Nc3cc(C)on3)c2)cc1,inactive: 0.336%
5,O=S(=O)(NCCSCc1ccc(Cl)c(Cl)c1)c1ccc2c(c1)OCCO2,inactive: 0.904%
6,O=C(CCc1ccccc1)c1ccc2c(c1)OCCCO2,inactive: -0.39%
7,COc1ccc(NC(=O)O/N=C/c2ccccc2)cc1,inactive: 0.577%
8,CN(C)c1nc(C(=O)Nc2ccccc2)nc(N(C)C)n1,inactive: 0.331%
9,O=C(N/N=C/c1cc([N+](=O)[O-])cc([N+](=O)[O-])c1O)/C(=C\c1cccs1)NC(=O)c1ccccc1,inactive: -0.379%
10,Cc1onc(-c2ccccc2)c1C(=O)Nc1c(C)n(C)n(-c2ccccc2)c1=O,inactive: 0.51%
11,O=C(Nc1ccccn1)c1ccc(C(=O)c2ccccc2)cc1,inactive: -0.657%
12,CCOC(=O)c1sc2nc(N3CCOCC3)c3c(c2c1N)CCN(Cc1ccccc1)C3,inactive: 0.412%
13,Nc1cccc(C(=O)Nc2ccco2)c1,inactive: 0.108%
14,CC(=O)OCC1OC(OC2C[C@]3(C)C(CC(O)C4C([C@](C)(CCC=C(C)C)OC5OC(CO)C(O)C(O)C5O)CC[C@]43C)[C@@]3(C)CCC(O)C(C)(C)C23)C(O[C@@H]2OC(C)C(O)C(O)C2O)C(O)C1O (stereo partly specified),inactive: -0.13%
15,CN(C)c1ccc(C(=O)OCC(=O)N2CCCC2)cc1,inactive: 0.251%
16,COc1ccc(N(CC(=O)Nc2ccc(S(=O)(=O)N3CCCC3)cc2)S(C)(=O)=O)cc1OC,inactive: 0.611%
17,Cc1cccc(NC(=O)CSc2cccc3cccnc23)c1,inactive: 0.577%
18,Cc1occc1-c1nnc(SCC(=O)c2cc3ccccc3oc2=O)o1,inactive: 1.24%
19,COc1ccc(OC)c(C2/C(=C(\O)c3ccc(OC)c(Cl)c3)C(=O)C(=O)N2CCN(C)C)c1 (stereo unspecified),inactive: 0.17%
20,O=[N+]([O-])c1ccc(/C=[N+](\[O-])[C@@H]2CCCC[C@@H]2/[N+]([O-])=C/c2ccc([N+](=O)[O-])o2)o1,inactive: 0.378%
21,Cc1ccccc1-n1nc(C)c2cc(C(=O)N3CCN(S(=O)(=O)c4ccc(F)cc4)CC3)sc21,inactive: -0.325%
22,CC(=O)c1c(C(C)=O)c(C)n(NC(=O)c2ccncc2)c1C,inactive: 0.563%

row,SMILES,"activity change, negative = inhibition"
1,Cc1ccc(Nc2nc3nonc3nc2N(C)C)cc1,inactive: 0.249%
2,CC[C@]12c3[nH]c4ccccc4c3CCN1C(=O)C(CC(=O)NCCCOC)C[C@@H]2C(=O)N1CCN(C(=O)c2ccco2)CC1 (stereo partly specified),inactive: 0.706%
3,COc1ccc2c(C(=O)CN3CCN(c4ccccc4)CC3)c[nH]c2c1,inactive: 0.364%
4,O=C(COC(=O)CCC(=O)c1cccs1)Nc1ccc(S(=O)(=O)N2CCOCC2)cc1,inactive: -0.226%
5,COc1ccc(/C=C2\Sc3ccc(C(=O)N4CCCC4)cc3N(C)C2=O)cc1OC,inactive: 0.723%
6,CCOc1ccccc1Nc1nc2ccccc2n2cnnc12,inactive: -0.135%
7,Cc1cc(Cl)ccc1OCC(=O)N1CCCCC1,inactive: 0.0312%
8,COc1ccc(-c2n[nH]c(=S)n2C2CCCCC2)cc1,inactive: 0.0074%
9,Nc1nc(C2CC(=O)OC23CCCCC3)cs1 (stereo unspecified),inactive: -1.75%
10,COc1cc(/C=N/N2CCN(c3ccccc3OC)CC2)ccc1O,inactive: 0.524%
11,CSc1nnnn1CCn1nnnc1SC,inactive: -0.14%
12,COc1ccccc1Cc1nnc(NC(=O)C2CCN(C(=O)c3ccco3)CC2)s1,inactive: 0.202%
13,CC1(C)CC2(CC(C)(C)N1)OC(=O)N1CCc3ccccc3C12C (stereo unspecified),inactive: 0.0279%
14,CC(C)(C)c1ccc(S(=O)(=O)NCc2ccc(C(=O)N3CCCC3)cc2)cc1,inactive: 0.701%
15,N#CCCCCN1c2cccc3cccc(c23)S1(=O)=O,inactive: 0.617%
16,COc1ccc(NC(=O)N(C)C[C@H]2Oc3c(NS(=O)(=O)c4cccs4)cccc3C(=O)N([C@H](C)CO)C[C@@H]2C)cc1,inactive: 0.309%
17,CCCn1c2ccccc2c2nnc(SCC(=O)Nc3c(C)n(C)n(-c4ccccc4)c3=O)nc21,inactive: -0.294%
18,COc1ccc(OCC(=O)N/N=C/C(C)=C/c2ccco2)c(Br)c1,inactive: 0.0801%
19,O=C(O)c1ccc2c(c1)nnn2C1CCCCC1,inactive: 0.854%
20,COC(=O)C1CC(O)CN1C(=O)NC1CCCCC1 (stereo unspecified),inactive: -0.391%
